This assay concerns the target C. elegans Hsp90 (HSP-90) (C. elegans) (UniProt Q18688). Description: AUC; sedimentation velocity with fluorescence detection; 600 nM ATTO 488-labelled GRLBDm, 3 μM unlabelled chaperones and cofactors, 2 mM ATPγS; 20 mM HEPES, 20 mM KCl, 5 mM MgCl2, 50 μM dexamethasone, pH 7.5; 42,000 rpm, 20 °C; both purified.

No constants are given. Whether binding was seen depends on the method and setting. Some results given as binding are weak or reduced against the parent protein; the word gives no strength.

B1: Cep23/DAF-41, nematode p23 homolog (protein, UniProt Q23280 1-175)
chain: MAKQPTVLWAQRESLVYLTIEVDEAKIEELKGEGNKLHFQGSSKTDKYEATLEFFDEIDPASVKHTGSSTRVVEITVQKKTPAWWPRLLQNKGKVHWLKVDFGKWKDEDEDDEAEDAGAGIGGGMANGFDLNQYMSQMGGAGGADFGGLEDDEEDDDMPDLEDNEEEEGKNGTRA
Consider B1, for which the binding result is “binds weakly”.

(Values after publication PMC7329908.)
